Laboratory results published in patent US20260234188A1, “CHEMOKINE-BINDING PEPTIDES” (Oxford University Innovation Limited, priority 2022, published 2026).
Entries after “also recorded” stand apart in the source; their conditions may differ. For some of these results: Part of at least one peptide drawing is inferred or uncertain, most often the ends. Some entries share one result that the patent states for a list of compounds. Ends that are not written are not given here.

Protein sequences, listed by entry. Tags and fused reporters are not part of them. Residues count along the entry.
UniProt P80098, 24-99: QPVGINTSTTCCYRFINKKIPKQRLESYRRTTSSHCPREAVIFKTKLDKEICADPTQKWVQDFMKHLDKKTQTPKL
UniProt P51671, 24-97: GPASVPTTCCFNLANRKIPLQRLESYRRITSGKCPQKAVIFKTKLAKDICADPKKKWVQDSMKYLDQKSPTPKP
UniProt P13500, 24-99: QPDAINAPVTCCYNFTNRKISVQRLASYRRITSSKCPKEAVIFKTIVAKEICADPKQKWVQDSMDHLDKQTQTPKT

How the values were obtained:
CCL5 [1] = target: T1, CCL5 (Homo sapiens, UniProt P13501); test: CCL5-induced THP-1 cell migration, transwell assay; type: cell-based; settings: peptide 10 μM, chemokine at EC80, versus scrambled control HD2SCR
T1 construct: purchased Peprotech
T1 sequence (P13501 24-91): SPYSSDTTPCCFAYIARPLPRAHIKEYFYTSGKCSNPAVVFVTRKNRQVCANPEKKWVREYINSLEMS

CCL7 [2] = target: T2, CCL7 (Homo sapiens, UniProt P80098); test: CCL7-induced THP-1 cell migration, transwell assay; type: cell-based; settings: peptide 10 μM, chemokine at EC80, versus scrambled control HD2SCR
T2 construct: purchased Peprotech

CCL11 = CCL11 (Homo sapiens, UniProt P51671); test: Biolayer interferometry, HIS:SUMO:HD2 immobilised on Ni-NTA biosensor; type: binding; settings: HD2 as HIS:SUMO fusion
CXCL11 = target: T3, CXCL11 (Homo sapiens, UniProt O14625); test: CXCL11-induced activated T-cell migration, transwell assay; type: cell-based; settings: peptide 10 μM, chemokine at EC80
T3 construct: purchased Peprotech
T3 sequence (O14625 22-94): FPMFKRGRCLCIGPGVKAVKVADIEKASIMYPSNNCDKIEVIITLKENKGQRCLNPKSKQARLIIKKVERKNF
Description: (§1) FIG. 2. […] BK1.2 is described in (Darlot, 2020). […] Chemokines used are indicated by the name, followed in parenthesis by the supplier code (P in supplier code indicates Peprotech). […] All experiments were performed at EC80 doses of indicated chemokine. Data are shown as box-whisker plots of three technical and three biological replicates. Statistically significant differences (compared to control, indicated by #), using Dunnett's test with correction for multiple comparisons, are indicated by asterisks: ****=P≤0.0001, ***=P≤0.001, **=P≤0.01, *=P≤0.05.
(§2) Briefly, cell migration assays use THP1 cells (human monocyte) and primary human buffy coat white cells (consisting of neutrophil granulocytes, monocytes, and lymphocytes), and activated T-cells. […] Assays are performed in 96-well Boyden chambers, and migrated cells counted and characterized using and ATTUNE Flow Cytometer as described. […]
(§3) The J:CXCR1 cell line was generated by transfecting Jurkat cells by electroporation with PvuI-linearized plasmid D1398 and selecting with blasticidin (Sigma-Aldrich, Cat #203350, 5 g/mL). […] Cell counts were determined by Attune NxT Flow Cytometer Plate Reader (ThermoFisher), based on cell size parameters FSC-H/SSC-H. Experiments were performed in 3 technical and 3 biological replicates. […] Statistical significances between control experimental groups was evaluated using Dunnett's test. […]

CCL1 = target: T4, CCL1 (Homo sapiens, UniProt P22362); test: Biolayer interferometry, HIS:SUMO:HD2 immobilised on Ni-NTA biosensor; type: binding; settings: HD2 as HIS:SUMO fusion
T4 sequence (P22362 24-96): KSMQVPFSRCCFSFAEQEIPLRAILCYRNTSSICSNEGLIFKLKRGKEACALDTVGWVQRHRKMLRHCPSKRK

CCL2 = target: T5, CCL2 (Homo sapiens, UniProt P13500); test: CCL2-induced THP-1 cell migration, transwell assay; type: cell-based; settings: peptide 10 μM, chemokine at EC80, versus scrambled control HD2SCR
T5 construct: purchased Peprotech

[3] = system: panel of up to 42 human chemokines; test: Phage-display next generation sequencing screen of overlapping hexadecapeptide libraries, chemokines displayed on streptavidin beads; settings: log2E greater than 5, chemokines named by first part of UniProt Entry Name, peptides binding complement C5a (control) excluded;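 note: chemokine listed when log2 fold enrichment exceeds 5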
Text: FIG. 1. Exemplar results from phage display screens. Phage-display libraries were constructed and analysed as described in (McLaughlin, 2013) (Tonikian, 2007). […] FIG. 1A, CC chemokines against evasin A library. FIG. 1B, CXC chemokines against the evasin B library. FIG. 1C, CXC and CX3C chemokines against the viral chemokine binding protein library. FIG. 1D, CXC chemokines against the chemokine library. […] Identified hexadecapeptides were mapped to the position in the originating protein (x-axis) and to fold enrichment (log 2 E, left y-axis). Regions of interest (ROI) were defined where the cumulative residue log 2 E, (clog 2 E:r, right y-axis) exceeds the 95% upper confidence interval of the median clog 2 E:r for the entire protein (indicated as a horizontal dotted line in each panel). Proteins are referred to by their UniProt ID.
Hexadecapeptides were identified using a phage-display next generation sequencing approach (McLaughlin, 2013). Libraries containing a total of 55662 overlapping peptides (from the tick chemokine binding proteins shown in Tables 3A and 3B, the viral chemokine binding proteins shown in Table 3C, the human chemokines shown in Table 3 E, and the human/viral chemokine receptors and other chemokine-binding proteins shown in Table 3D) were first constructed, and then screened against a panel of up to 42 human chemokines, as shown in Table 3F.

CXCL10 [4] = target: T6, CXCL10 (Homo sapiens, UniProt P02778); test: CXCL10-induced activated T-cell migration, transwell assay; type: cell-based; settings: peptide 10 μM, chemokine at EC80
T6 construct: purchased Peprotech
T6 sequence (P02778 22-98): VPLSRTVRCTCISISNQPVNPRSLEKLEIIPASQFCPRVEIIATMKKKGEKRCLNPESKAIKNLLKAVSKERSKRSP
Description: as §1
FIG. 11. […] Technical replicates are shown as individual data points. […] The response curve (solid blue line) and its 95% confidence interval (grey ribbon) were calculated using a 4-parameter log-logistic plot.
Briefly, cell migration assays use THP1 cells (human monocyte) and primary human buffy coat white cells (consisting of neutrophil granulocytes, monocytes, and lymphocytes), and activated T-cells. THP1 cells and primary monocytes respond to CCL2, CCL3, CCL5, CCL8 and CXCL4, granulocytes to CXCL1 and CXCL8, activated T-cells to CXCL9/10/11. Assays are performed in 96-well Boyden chambers, and migrated cells counted and characterized using and ATTUNE Flow Cytometer as described. […]

CCL5 [5] = target: T1, CCL5; test: Biolayer interferometry, HIS:SUMO:HD2 immobilised on Ni-NTA biosensor; type: binding; settings: HD2 as HIS:SUMO fusion
CCL23 = target: T7, CCL23 (Homo sapiens, UniProt P55773); test: CCL23-induced cell migration assay; type: cell-based; settings: peptide 10 μM, chemokine at EC80, versus scrambled control HD2SCR
T7 sequence (P55773 22-120): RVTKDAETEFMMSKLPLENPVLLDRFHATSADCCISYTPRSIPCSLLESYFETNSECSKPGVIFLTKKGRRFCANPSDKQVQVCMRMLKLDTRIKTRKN

CCL3 = target: T8, CCL3 (Homo sapiens, UniProt P10147); test: CCL3-induced THP-1 cell migration, transwell assay; type: cell-based; settings: peptide 10 μM, chemokine at EC80, versus scrambled control HD2SCR
T8 construct: purchased Peprotech
T8 sequence (P10147 24-92): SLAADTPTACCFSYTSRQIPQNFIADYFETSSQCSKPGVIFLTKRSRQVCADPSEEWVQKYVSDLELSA
Description: as §1, §2, §3

[6] = system: panel of 24 biotinylated chemokines; test: Phage-display screen of HD2 NNK saturation mutagenesis library; type: binding, human; settings: parental peptide within the mutant library
Text: (§4) FIG. 7. Exemplar results from phage display screens using saturation mutagenesis. A phage-display library was constructed using the HD2 sequence, replacing each residue encoding codon with the degenerate sequence NNK. The 16 degenerate sequences (which also encoded the parental HD2 sequence) were pooled and cloned into display phage. […] Exemplar peptides were selected such that log 2 E for at least one chemokine was greater than 5, and log 2 E for binding to control (CO5, was less than zero). […] The fold enrichment of parental HD2 is also indicated.
as §4, with “A” for “FIG. 7. Exemplar results from phage display screens using saturation mutagenesis. A”
A molecular level understanding of binding mechanism is needed for development of peptides as therapeutics and is usually obtained from structural analyses. As HD2 binds many chemokines this becomes a challenging task, and we explored if we could elucidate this using phage display mutagenesis. The role of each residue in HD2 for binding was examined in phage-display. […]

CCL7 [7] = target: T2, CCL7; test: Biolayer interferometry, HIS:SUMO:HD2 immobilised on Ni-NTA biosensor; type: binding; settings: HD2 as HIS:SUMO fusion
CXCL13 = target: T9, CXCL13 (Homo sapiens, UniProt O43927); test: as above; type: binding; settings: HD2 as HIS:SUMO fusion
T9 sequence (O43927 23-109): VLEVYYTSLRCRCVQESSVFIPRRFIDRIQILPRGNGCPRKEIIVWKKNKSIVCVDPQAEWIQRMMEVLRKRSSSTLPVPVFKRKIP

CXCL10 [8] = target: T6, CXCL10; test: as above; type: binding; settings: HD2 as HIS:SUMO fusion
[9] = system: 25 biotinylated chemokines; test: Phage-display screen of class A evasin hexadecapeptide library; type: binding, human; settings: log 2 E>5

Row | Substance | inhibition of cell migration (CCL5 [1]) | inhibition of cell migration (CCL7 [2]) | binding at different chemokine doses (CCL11) | inhibition of cell migration (CXCL11) | binding at different chemokine doses (CCL1) | inhibition of cell migration (CCL2) | Chemokines Bound [3] | inhibition of cell migration (CXCL10 [4]) | binding at different chemokine doses (CCL5 [5]) | inhibition of cell migration (CCL23) | inhibition of cell migration (CCL3) | log 2 E for the parental HD2 [6] | binding at different chemokine doses (CCL7 [7]) | binding at different chemokine doses (CXCL13) | binding at different chemokine doses (CXCL10 [8]) | number of different chemokines bound in phage display [9]
1 | EEDDYTAYAPLTCYFT-NH2 [HD2, EEDDYTAYAPLTCYFT] | inhibit cell migration; also recorded: significant inhibition of cell migration | inhibit cell migration; also recorded: significant inhibition of cell migration | dose-dependent binding | inhibition; also recorded: inhibit cell migration | dose-dependent binding | inhibit cell migration; also recorded: significant inhibition of cell migration | CCL1, CCL11, and CCL15, CCL17, and CCL18, CCL20 and CCL22, CCL3, and CCL4, CCL5, and CCL8 | inhibition; also recorded: inhibit cell migration | dose-dependent binding | significant inhibition of cell migration; also recorded: inhibit cell migration | inhibit cell migration; also recorded: significant inhibition of cell migration | ~ 0 | dose-dependent binding | dose-dependent binding | dose-dependent binding | –
2 | EEEDDYTAYAPLTCYF [HD7] | – | – | – | – | – | – | – | – | – | – | – | – | – | – | – | over 15
